From the supplement of paper PMC11150407
The campaign covered roughly 3,000 compounds. About 45 (2%) showed an effect of 50% or more. The list shows a part of the results.

System: MOLM1 and UCSD/AML1 (averaged)
Assay: cell viability relative to DMSO control (POC); higher = less growth inhibition
Details: 1 µM; 72 h
Description: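 Primary viability screen in the 3q26 EVI1-high AML cell lines MOLM1 and UCSD/AML1, compounds at 1 uM for 72 h. ATP CellTiter-Glo read-out given as percent viable over DMSO control (POC), averaged over duplicates. This mapping covers the TimTec NDL-3000 natural derivative library, whose compounds are identified by TimTec catalogue codes (ST...).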

Structure (SMILES) | cell viability
O=c1oc2cc(O)ccc2cc1-c1ccc(Cl)cc1 | 96.4%
CC(=O)OC1CCC2(C)C(CCC3(C)C2C(=O)C=C2C4CC(C)(C(=O)Nc5ccccc5C)CCC4(C)CCC23C)C1(C)C (stereo not given) | 105%
COC(=O)c1c(NC(=O)CN2CCC3(O)CCCCC3C2c2ccc(OC)cc2)sc2c1CCCC2 (stereo not given) | 99.9%
COc1ccc(C(=O)Nc2cc(C)cc(C)c2)cc1OC | 87.3%
CCOc1ccc2[nH]c(=O)c(Cc3ccccc3)c(O)c2c1 | 105%
O=C(Nc1cccc(C(F)(F)F)c1)c1cc(=O)[nH]c2ccccc12 | 96.9%
COc1cc(O)c(C(=O)Cc2ccc(Cl)cc2)c(OC)c1 | 101%
C#CC1(OC(C)=O)CCC2C3CCc4cc(OC(C)=O)ccc4C3C(OC(C)=O)CC21C (stereo not given) | 88.5%
O=c1[nH]c2c(-c3ccccc3)cccc2c(O)c1C(c1ccc(F)cc1)c1c(O)c2ccccc2n(-c2ccccc2)c1=O (stereo not given) | 97.5%
CCOc1ccc2oc(=O)cc(CN3CCN(CC(=O)N4CCCCC4)CC3)c2c1 | 97.5%
CCCCOC(=O)Cn1cnc2ccc(Br)cc2c1=O | 95.8%
COc1cc(C2C(C#N)=C(N)Oc3n[nH]c(C)c32)cc2c1OCO2 (stereo not given) | 104%
Cc1ccc(Cl)cc1NC(=O)CSc1nc2c(=O)[nH]cnc2n1C | 115%
COc1ccc(C2c3[nH]c4ccccc4c3CCN2Cc2ccccc2Cl)cc1 (stereo not given) | 97.3%
CCOC(=O)c1c(C)n(-c2cccc(C)c2)c2ccc(OC)cc12 | 99.7%
O=C(CSc1nc2ccccc2c(=O)[nH]1)Nc1ccc2c(c1)OCCO2 | 101%
Cc1cccc(NC(=O)CN2C(=O)N/C(=C\c3cc4c(cc3Cl)OCO4)C2=O)c1 | 88.7%
CCOc1ccc2oc(=O)cc(CN3CCN(CC(=O)NC4CCCCC4)CC3)c2c1 | 103%
CCOC(=O)c1c(NC(=O)c2cc3ccccc3oc2=O)sc2c1CCCCCCCCCC2 | 98.4%
CC1(C)CC(NC(=O)c2cc3cc(Br)ccc3oc2=O)CC(C)(C)N1 | 100%
COc1ccc(Nc2nc(N)c(C(=O)c3ccc4c(c3)OCCO4)s2)cc1 | 95.6%
COc1cc(C(=O)/C=C2\C(=O)Nc3ccccc32)cc(OC)c1OC | 21.6%
Cc1[nH]c2ccc(OCc3ccccc3)cc2c1CCNC(=O)c1cccc(Br)c1 | 91.8%
N[C@@H](CSCc1ccccc1)C(=O)O | 99.8%
CNC(=O)c1cc(=O)n(CC(=O)Nc2ccccc2Cl)c2ccccc12 | 112%

Exported tab-delimited: two of the compounds above.
Structure (SMILES)	cell viability
CCOc1ccc2oc(=O)cc(CN3CCN(CC(=O)NC4CCCCC4)CC3)c2c1	103%
CCOC(=O)c1c(NC(=O)c2cc3ccccc3oc2=O)sc2c1CCCCCCCCCC2	98.4%

Following part

Structure (SMILES) | cell viability
CC(=O)c1ccc(NC(=O)CN2CCN(Cc3cc(=O)oc4cc(C)ccc34)CC2)cc1 | 110%
CCOc1ccccc1C1C2CCCCC2(O)CCN1C(=O)/C=C/c1ccc2c(c1)OCO2 (stereo not given) | 110%
Cc1cccc(-c2nc(CSc3nc4c(=O)[nH]cnc4n3C)c(C)o2)c1 | 102%
O=C(O)/C=C/c1cc([N+](=O)[O-])ccc1Cl | 104%
Cc1ccc2nc(-c3ccc(NC(=O)CN4CCc5ccccc5C4)cc3)sc2c1 | 102%
COC(=O)c1ccc(C(=O)NCCc2c(C)[nH]c3c(C)ccc(F)c23)cc1 | 91.1%
Cn1c(SCc2cccc(C(F)(F)F)c2)nc2c(=O)[nH]cnc21 | 91.9%
COc1ccc(C(=O)N/C(=C\c2ccco2)C(=O)NCCc2c(C)[nH]c3ccccc23)cc1 | 89.4%
COc1ccc(C(c2c(O)c3ccccc3n(-c3ccccc3)c2=O)c2c(O)c3ccccc3n(-c3ccccc3)c2=O)cc1OC | 98.8%
C#CC1(OC(C)=O)CCC2C3CCc4cc(OC(C)=O)ccc4C3C(O)CC21C (stereo not given) | 97.6%
COC1OC2COC(c3ccccc3)OC2C(OC(=O)c2ccccc2)C1OC(=O)c1ccccc1 (stereo not given) | 91.9%
COc1cc(C(=O)N2CCN(S(=O)(=O)c3ccc(NC(C)=O)cc3)CC2)cc(OC)c1OC | 105%
O=C(CSc1nc2c(=O)[nH]cnc2n1-c1ccccc1)NC1CCCC1 | 91.7%
COC(=O)c1sc(NC(=O)c2ccc3c(c2)OCO3)c(C#N)c1C | 94.9%
N#CC1=C(N)Oc2[nH]c(=O)[nH]c(=O)c2C1c1ccccc1F (stereo not given) | 94.3%
Cc1cc(C(F)(F)F)c2c(N)c(C(=O)N3CCC[C@H]3C(=O)O)sc2n1 | 96.1%
CCOc1cc(C(=O)OCC(=O)Nc2cc(C)ccc2C)cc(OCC)c1OCC | 105%
N#Cc1cc2c(nc1SCC(=O)N1CCC[C@H]1C(=O)O)CCC2 | 89.9%
CCCCCOc1ccc(C2=NOC(=O)/C2=C\c2cc(Cl)ccc2O)cc1 | 92.3%
COc1ccc2[nH]cc(CCNC(=O)c3ccc(Cl)cc3)c2c1 | 101%
COC(=O)CC(N)c1ccccc1F (stereo not given) | 104%
Cc1ccc(Cn2c(OCc3nc(N)nc(N4CCOCC4)n3)nc3c2c(=O)n(C)c(=O)n3C)cc1 | 104%
Cc1ccc(NC(=O)Cn2c(=O)cc(C(=O)NCc3ccccc3)c3ccccc32)cc1 | 94.2%
O=C(/C=C/c1ccc2c(c1)OCO2)NCc1ccc(Cl)cc1 | 105%
CCCNC(=O)c1cc(=O)n(CC(=O)Nc2cccc(Cl)c2C)c2ccccc12 | 97.1%

3 structures from above, ordered by number of heavy atoms, rising:
Structure (SMILES) | cell viability
COC(=O)c1sc(NC(=O)c2ccc3c(c2)OCO3)c(C#N)c1C | 94.9%
CCOc1ccc2oc(=O)cc(CN3CCN(CC(=O)NC4CCCCC4)CC3)c2c1 | 103%
Cc1ccc(Cn2c(OCc3nc(N)nc(N4CCOCC4)n3)nc3c2c(=O)n(C)c(=O)n3C)cc1 | 104%

(next part)

Structure (SMILES) | cell viability
COc1ccc(NC(=O)Cn2c(=O)cc(C(=O)N3CCOCC3)c3ccccc32)cc1OC | 102%
COc1ccc(C(NS(=O)(=O)c2ccc(C)cc2)c2nccc3cc(OC)c(OC)cc23)cc1OC (stereo not given) | 98.4%
Cc1ccccc1CSc1nc2c(=O)[nH]cnc2n1-c1ccccc1 | 93.2%
Nc1nc2nc(N3CCOCC3)[nH]c2c(=O)[nH]1 | 105%
Cc1ccccc1NC(=O)C(Cc1c[nH]c2ccccc12)NC(=O)Oc1ccccc1 (stereo not given) | 95.1%
COc1cc(C(=O)Nc2cc(C(F)(F)F)ccc2N2CCOCC2)ccc1Oc1cc([N+](=O)[O-])cc(C(F)(F)F)c1 | 91.6%
COc1ccc(C2NC(C(=O)O)Cc3c2[nH]c2ccccc32)cc1COc1ccccc1C1CCCCC1 (stereo not given) | 85.9%
Cc1cc(C)c2c(CN3CCc4ccccc4C3)cc(=O)oc2c1 | 90.7%
COc1cc(C2C(C(=O)OC3CCCCC3)=C(C)NC3=C2C(=O)CC(c2ccccc2)C3)cc(Cl)c1O (stereo not given) | 90%
COc1ccc(C(=O)Nc2ccccc2C(C)C)cc1OC | 103%
Cn1c(=O)c2c(nc3n2CC(C24CC5CC(CC(C5)C2)C4)=NN3CCO)n(C)c1=O | 106%
COc1ccc(/C=C2\Oc3cc(OC(C)=O)ccc3C2=O)cc1 | 111%
Cc1nc2c(nc(SCC(=O)N3CCCc4ccccc43)n2C)c(=O)[nH]1 | 106%
COc1ccc(-n2c(N)c(NC(=O)Nc3cccc(Cl)c3)c(=O)[nH]c2=O)cc1 | 96.8%
N=c1oc2ccccc2cc1C(=O)Nc1ccc(F)cc1 | 103%
COc1ccc(-c2oc3ccccc3c(=O)c2OC(C)C(=O)O)cc1 (stereo not given) | 100%
CSc1cccc(NC(=O)Cn2c(=O)cc(C(=O)N3CCCC3)c3ccccc32)c1 | 97.9%
CC(C)OC(=O)C1=C(N)Oc2c(oc(CO)cc2=O)C1c1ccccc1[N+](=O)[O-] (stereo not given) | 102%
CC(=O)OC1CCC2(C)C(CCC3(C)C2C(=O)C=C2C4CC(C)(C(=O)N5CCOCC5)CCC4(C)CCC23C)C1(C)C (stereo not given) | 100%
CC(C)c1ccc(NC(=O)CSc2nc3c(=O)[nH]cnc3n2C)cc1 | 88.6%
CCOC(=O)CC(NC(=O)c1cc2cc(OC)ccc2oc1=O)c1ccccc1Cl (stereo not given) | 97.3%
NC(N)=NCCCC(NC(=O)c1ccccc1)C(=O)Nc1ccc2ccccc2c1 (stereo not given) | 101%
CC(=O)NC1C(Oc2ccc3c(C)cc(=O)oc3c2)OC(CO)C(O)C1O (stereo not given) | 98.6%
Cc1[nH]c2ccc(CN)cc2c1C | 103%
Cc1ccc(Cn2c(SCC(=O)c3ccc([N+](=O)[O-])cc3)nc3c2c(=O)[nH]c(=O)n3C)cc1 | 101%

Structure (SMILES) | cell viability
O=C(O)/C=C/c1ccc(O)cc1 | 103%
CCn1c(SCC(=O)O)nc2c1c(=O)[nH]c(=O)n2C | 98.8%
COC(=O)CNC(=O)c1ccc(NC(C)=O)cc1 | 101%
COc1ccc(/C=C2\CCc3ccccc3C2=O)cc1 | 94%
CCCc1cc(=O)[nH]c(SCc2ccc(C(=O)Nc3cccc(C)c3)cc2)n1 | 91.3%
O=C(/C=C/c1cccc([N+](=O)[O-])c1)c1ccc2c(c1)OCO2 | 98.1%
CC(=O)N[C@@H](Cc1c[nH]c2ccccc12)C(N)=O | 100%
OC1C2COC(O2)C(O)C1O (stereo not given) | 102%
CN(CCO)c1nc2c(=O)n(C)c(=O)n(C)c2n1C | 98.8%
O=C(/C=C/c1ccc([N+](=O)[O-])cc1)NCc1ccc2c(c1)OCO2 | 97%
CC(C)Oc1ccc(CNC(=O)CSc2nc3ccccc3c(=O)[nH]2)cc1 | 105%
CCOC(=O)CC[C@@H](C)[C@H]1CC[C@H]2[C@@H]3CC[C@@H]4C[C@H](O)CC[C@]4(C)[C@H]3C[C@H](O)[C@]12C | 86%
CCOC(=O)C1=C(C)NC2=C(C(=O)CCC2)C1c1cc(Br)c(O)c(OC)c1 (stereo not given) | 116%
CC(=O)NC(N1CCCCC1c1cccnc1)(C(F)(F)F)C(F)(F)F (stereo not given) | 103%
CC(Oc1ccccc1)C(=O)Nc1c[nH]c(=O)[nH]c1=O (stereo not given) | 100%
COc1ccc(NC(=O)CN2CCN(Cc3cc(=O)oc4cc(C)ccc34)CC2)cc1Cl | 96.9%
COc1ccc2c(c1)c(CC(=O)NCCCN1CCCCC1)c(C)n2C(=O)c1ccc(Cl)cc1 | 81.2%
N#Cc1c(N)c2ccccc2[nH]c1=O | 103%
CCOCCn1c(C)c(C(=O)OCC)c2cc(O)c3ccccc3c21 | 90.3%
COc1cc(/C=c2/sc3nc4ccccc4n3c2=O)cc(OC)c1OC(C)=O | 97.8%
CCOc1ccc2oc(=O)cc(CSc3nc4ccccc4c(=O)[nH]3)c2c1 | 99.7%
C=C(C)C1CCC2(COC(=O)/C=C/c3ccc(OC)cc3)CCC3(C)C(CCC4C5(C)CCC(O)C(C)(C)C5CCC43C)C12 (stereo not given) | 99.6%
COc1ccccc1-c1nc(CSc2nc3c(=O)[nH]c(C)nc3n2C)c(C)o1 | 98%
Cn1c(SCc2ccccc2F)nc2c(=O)[nH]cnc21 | 108%
CCCCOc1ccc(C2=NOC(=O)/C2=C\C=C\c2ccccc2)cc1 | 97.7%
